Values from PubChem BioAssay AID1508597 (Cure First, 2020)
This is a random part of the about 2,100 reagents, under one of the conditions tested. 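Calls flag viability under 80% in either arm, not effects specific to rucaparib; the reference for percent is not stated.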 Entries without a mark were called inactive. Some reagents were tested in more than one well and are listed for each. Not stated in the record: the 100% reference.

Aim: 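Knock-downs altering ovarian cancer cell survival with or without PARP inhibitor rucaparib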 (primary screen)
System: human ovarian carcinoma lines grown from tumours: OCI-P5x (papillary serous) and OCI-C5x (clear cell)
Reagents: siRNA pool against human genes, 1.25 pmol siRNA per well
Time to read-out: 72 h or 96 h, depending on the cell culture
Treatment: rucaparib 20 µM (about IC30) or vehicle, present until read-out
Rucaparib or vehicle: Vehicle
Cell line: OCI-P5x (serous)
Measurement: 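Luminescent ATP-based viability assay read 72 or 96 h after transfection, depending on culture, given as normalised percent viability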
Reading the numbers: viability, normalised: higher = more viable cells remaining
Active means: 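a well counts as a hit if its normalised viability is under 80 percent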
Meaning of the calls: active = viability under 80%; inactive = viability 80% or more

gene,PubChem SID,technical replicate,"viability, normalised (%)"
TARBP2 (TARBP2 subunit of RISC loading complex),SID405526533,1,81.6
TARBP2 (TARBP2 subunit of RISC loading complex),SID405526533,2,92.8
TARBP2 (TARBP2 subunit of RISC loading complex),SID405526533,3,88.9
ZFP42 (ZFP42 zinc finger protein),SID405526650,1,47.8 (active)
ZFP42 (ZFP42 zinc finger protein),SID405526650,2,60.2 (active)
ZFP42 (ZFP42 zinc finger protein),SID405526650,3,55.6 (active)
PHF6 (PHD finger protein 6),SID405527156,1,62.1 (active)
PHF6 (PHD finger protein 6),SID405527156,2,67.1 (active)
PHF6 (PHD finger protein 6),SID405527156,3,60.2 (active)
TBP (TATA-box binding protein),SID405526382,1,87.8
TBP (TATA-box binding protein),SID405526382,2,90.5
TBP (TATA-box binding protein),SID405526382,3,54.6 (active)
SUCLA2 (succinate-CoA ligase ADP-forming subunit beta),SID405528389,1,77.8 (active)
SUCLA2 (succinate-CoA ligase ADP-forming subunit beta),SID405528389,2,84.4
SUCLA2 (succinate-CoA ligase ADP-forming subunit beta),SID405528389,3,81.2
CHD2 (chromodomain helicase DNA binding protein 2),SID405528101,1,63 (active)
CHD2 (chromodomain helicase DNA binding protein 2),SID405528101,2,68.6 (active)
CHD2 (chromodomain helicase DNA binding protein 2),SID405528101,3,79.1 (active)
CSNK2A2 (casein kinase 2 alpha 2),SID405527521,1,94.9
CSNK2A2 (casein kinase 2 alpha 2),SID405527521,2,108
CSNK2A2 (casein kinase 2 alpha 2),SID405527521,3,93.6
PDE1A (phosphodiesterase 1A),SID405526683,1,75.6 (active)
PDE1A (phosphodiesterase 1A),SID405526683,2,88.8
PDE1A (phosphodiesterase 1A),SID405526683,3,77.1 (active)
NLK (nemo like kinase),SID405527908,1,96.5
NLK (nemo like kinase),SID405527908,2,83.2
NLK (nemo like kinase),SID405527908,3,82
NME8 (NME/NM23 family member 8),SID405526597,1,62.3 (active)
NME8 (NME/NM23 family member 8),SID405526597,1,58.3 (active)
NME8 (NME/NM23 family member 8),SID405526597,2,58.8 (active)
NME8 (NME/NM23 family member 8),SID405526597,2,82.2
NME8 (NME/NM23 family member 8),SID405526597,3,59.5 (active)
NME8 (NME/NM23 family member 8),SID405526597,3,68.6 (active)
"SETD1B (SET domain containing 1B, histone lysine methyltransferase)",SID405527280,1,56.2 (active)
"SETD1B (SET domain containing 1B, histone lysine methyltransferase)",SID405527280,2,50.2 (active)
"SETD1B (SET domain containing 1B, histone lysine methyltransferase)",SID405527280,3,82.8
MAP3K14 (mitogen-activated protein kinase kinase kinase 14),SID405527892,1,66 (active)
MAP3K14 (mitogen-activated protein kinase kinase kinase 14),SID405527892,2,49.4 (active)
MAP3K14 (mitogen-activated protein kinase kinase kinase 14),SID405527892,3,47.7 (active)
CLDN6 (claudin 6),SID405528139,1,78.9 (active)
CLDN6 (claudin 6),SID405528139,2,89.9
CLDN6 (claudin 6),SID405528139,3,76.9 (active)
TERF2 (telomeric repeat binding factor 2),SID405526552,1,66.6 (active)
TERF2 (telomeric repeat binding factor 2),SID405526552,1,69.6 (active)
TERF2 (telomeric repeat binding factor 2),SID405526552,2,61.6 (active)
TERF2 (telomeric repeat binding factor 2),SID405526552,2,74.2 (active)
TERF2 (telomeric repeat binding factor 2),SID405526552,3,73.7 (active)
TERF2 (telomeric repeat binding factor 2),SID405526552,3,80.2
SKP1 (S-phase kinase associated protein 1),SID405527544,1,121
SKP1 (S-phase kinase associated protein 1),SID405527544,2,114
SKP1 (S-phase kinase associated protein 1),SID405527544,3,92.9
CLDN19 (claudin 19),SID405528132,1,38.3 (active)
CLDN19 (claudin 19),SID405528132,2,50.2 (active)
CLDN19 (claudin 19),SID405528132,3,49.8 (active)
KDM4B (lysine demethylase 4B),SID405526934,1,46.7 (active)
KDM4B (lysine demethylase 4B),SID405526934,2,54.6 (active)
KDM4B (lysine demethylase 4B),SID405526934,3,88.3
